Reference: doi:10.1101/683441
These are yes or no findings as the source states them, for the method shown. Binding seen in cells or lysates may run through a third protein. Binding can be weak; no strength is given. Sequences can lack the tags named with a protein.

Target: GST-tagged Nedd4-2 WW3+WW4 (474-595 aa) (mouse)
Assay: pull-down

B1: HA-tagged Kir4.1 (inwardly rectifying K+ channel 4.1) (protein, UniProt Q9JM63 1-379)
chain: MTSVAKVYYSQTTQTESRPLVAPGIRRRRVLTKDGRSNVRMEHIADKRFLYLKDLWTTFIDMQWRYKLLLFSATFAGTWFLFGVVWYLVAVAHGDLLELGPPANHTPCVVQVHTLTGAFLFSLESQTTIGYGFRYISEECPLAIVLLIAQLVLTTILEIFITGTFLAKIARPKKRAETIRFSQHAVVASHNGKPCLMIRVANMRKSLLIGCQVTGKLLQTHQTKEGENIRLNQVNVTFQVDTASDSPFLILPLTFYHVVDETSPLKDLPLRSGEGDFELVLILSGTVESTSATCQVRTSYLPEEILWGYEFTPAISLSASGKYIADFSLFDQVVKVASPSGLRDSTVRYGDPEKLKLEESLREQAEKEGSALSVRISNV
  binding: binds
